This passage reports binding results from PMC10865405.

Protein sequences, listed by entry. Tags and fused reporters are not part of them. Lines headed by an entry give the natural chain unless they say otherwise; changes in a name come on top.
UniProt P03101: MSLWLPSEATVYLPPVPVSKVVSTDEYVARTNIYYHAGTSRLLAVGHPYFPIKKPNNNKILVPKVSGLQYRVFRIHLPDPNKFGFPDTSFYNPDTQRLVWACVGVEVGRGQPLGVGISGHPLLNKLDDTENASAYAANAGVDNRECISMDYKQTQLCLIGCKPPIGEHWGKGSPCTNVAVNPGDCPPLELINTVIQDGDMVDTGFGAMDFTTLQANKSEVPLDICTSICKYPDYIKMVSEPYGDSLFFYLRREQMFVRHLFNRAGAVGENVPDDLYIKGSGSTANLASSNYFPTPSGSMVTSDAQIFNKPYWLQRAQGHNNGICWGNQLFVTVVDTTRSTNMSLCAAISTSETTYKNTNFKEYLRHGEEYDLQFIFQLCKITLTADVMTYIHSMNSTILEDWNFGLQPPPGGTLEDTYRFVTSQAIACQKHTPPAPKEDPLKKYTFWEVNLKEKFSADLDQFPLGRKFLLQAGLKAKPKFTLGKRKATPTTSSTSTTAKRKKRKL
UniProt P36741: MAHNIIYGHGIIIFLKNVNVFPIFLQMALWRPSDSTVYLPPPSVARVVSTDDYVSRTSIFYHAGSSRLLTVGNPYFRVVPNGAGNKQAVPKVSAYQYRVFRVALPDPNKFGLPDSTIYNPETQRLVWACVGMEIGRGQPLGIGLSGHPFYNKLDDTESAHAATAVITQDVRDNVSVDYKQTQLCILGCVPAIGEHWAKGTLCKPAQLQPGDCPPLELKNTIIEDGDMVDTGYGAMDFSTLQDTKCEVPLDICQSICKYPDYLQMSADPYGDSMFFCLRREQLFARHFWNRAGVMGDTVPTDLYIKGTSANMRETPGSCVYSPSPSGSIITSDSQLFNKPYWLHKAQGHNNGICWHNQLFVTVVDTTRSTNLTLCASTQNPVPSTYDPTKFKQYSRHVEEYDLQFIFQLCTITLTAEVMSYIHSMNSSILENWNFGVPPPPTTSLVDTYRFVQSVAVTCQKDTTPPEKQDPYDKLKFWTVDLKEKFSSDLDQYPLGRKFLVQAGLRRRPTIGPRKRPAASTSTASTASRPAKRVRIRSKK
UniProt A0A3L7I2J9: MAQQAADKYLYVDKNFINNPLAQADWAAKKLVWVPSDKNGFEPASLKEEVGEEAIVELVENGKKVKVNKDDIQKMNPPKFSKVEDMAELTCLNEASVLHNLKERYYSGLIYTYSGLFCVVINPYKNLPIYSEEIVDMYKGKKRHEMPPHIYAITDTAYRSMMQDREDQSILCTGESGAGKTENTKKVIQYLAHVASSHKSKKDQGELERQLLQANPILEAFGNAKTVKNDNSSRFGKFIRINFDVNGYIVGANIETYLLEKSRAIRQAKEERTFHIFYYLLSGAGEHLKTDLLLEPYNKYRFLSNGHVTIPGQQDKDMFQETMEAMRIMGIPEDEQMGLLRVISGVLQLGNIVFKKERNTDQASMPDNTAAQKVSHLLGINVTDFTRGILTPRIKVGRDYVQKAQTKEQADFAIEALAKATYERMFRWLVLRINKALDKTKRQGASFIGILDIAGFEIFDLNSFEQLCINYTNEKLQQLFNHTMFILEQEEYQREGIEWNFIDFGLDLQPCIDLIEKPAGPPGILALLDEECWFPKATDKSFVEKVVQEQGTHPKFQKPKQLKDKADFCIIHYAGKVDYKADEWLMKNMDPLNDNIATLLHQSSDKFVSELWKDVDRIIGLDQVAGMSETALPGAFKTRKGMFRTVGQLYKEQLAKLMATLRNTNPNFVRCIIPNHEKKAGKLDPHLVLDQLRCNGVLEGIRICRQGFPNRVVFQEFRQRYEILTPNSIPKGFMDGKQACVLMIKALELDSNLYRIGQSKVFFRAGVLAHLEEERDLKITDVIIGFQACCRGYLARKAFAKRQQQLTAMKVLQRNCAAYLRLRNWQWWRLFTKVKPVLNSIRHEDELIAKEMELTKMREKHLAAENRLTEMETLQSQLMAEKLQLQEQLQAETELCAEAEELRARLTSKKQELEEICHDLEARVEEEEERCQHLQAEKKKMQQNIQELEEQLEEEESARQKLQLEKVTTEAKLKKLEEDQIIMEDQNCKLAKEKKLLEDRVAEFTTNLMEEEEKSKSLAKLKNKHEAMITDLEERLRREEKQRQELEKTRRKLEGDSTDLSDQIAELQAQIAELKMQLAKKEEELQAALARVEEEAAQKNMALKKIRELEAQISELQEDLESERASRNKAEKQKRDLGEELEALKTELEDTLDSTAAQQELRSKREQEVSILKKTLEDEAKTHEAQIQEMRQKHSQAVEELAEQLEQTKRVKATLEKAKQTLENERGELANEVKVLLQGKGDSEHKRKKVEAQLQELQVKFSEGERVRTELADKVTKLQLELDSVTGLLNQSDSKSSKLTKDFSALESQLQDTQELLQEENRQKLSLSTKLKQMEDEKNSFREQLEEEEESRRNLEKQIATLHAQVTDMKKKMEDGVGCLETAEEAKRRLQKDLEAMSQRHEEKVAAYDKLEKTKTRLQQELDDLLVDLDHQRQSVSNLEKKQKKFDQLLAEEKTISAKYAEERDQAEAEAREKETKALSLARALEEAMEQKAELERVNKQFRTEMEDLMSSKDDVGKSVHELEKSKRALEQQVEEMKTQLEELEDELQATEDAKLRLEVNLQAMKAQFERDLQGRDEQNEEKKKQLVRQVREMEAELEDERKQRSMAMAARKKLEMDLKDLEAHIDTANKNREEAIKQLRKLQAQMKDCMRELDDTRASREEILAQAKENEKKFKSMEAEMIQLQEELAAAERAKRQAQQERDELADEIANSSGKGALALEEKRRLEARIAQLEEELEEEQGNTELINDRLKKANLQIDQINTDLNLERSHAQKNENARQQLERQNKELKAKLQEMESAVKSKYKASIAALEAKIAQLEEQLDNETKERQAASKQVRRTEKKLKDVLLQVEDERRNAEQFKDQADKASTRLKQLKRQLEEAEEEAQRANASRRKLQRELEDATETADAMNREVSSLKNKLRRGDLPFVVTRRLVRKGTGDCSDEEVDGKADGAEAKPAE

Results are given in words; binding and its absence hold for the method and conditions named. In cells and extracts the contact can be indirect. Some entries that bind do so weakly or less than the wild type.

Test [1] addresses HPV16 pseudoviruses (PsVs) (human papillomavirus type 16) (UniProt P03101). The test is described as follows: co-IP; cell lysates of Lec1 cells incubated with HPV45 or HPV16 PsVs (100 μl, 10^4 RLU/μl) for 90 min, then with anti-L1 antibody coupled protein A/G magnetic beads for 90 min; L1 and myosin-9 on the beads by Western blot; only the target purified. Background: Immunoblotting shows a protein as a band on a membrane.

Test [2] addresses HPV45 pseudoviruses (PsVs) (human papillomavirus type 45) (UniProt P36741). The test is described as above.

For the substance “Chinese hamster myosin-9 (NMHC-IIA) (from UniProt A0A3L7I2J9 1-1960)”, the binding entry in test [1] and in test [2] was “binds” each time.
